PubChem BioAssay AID743454, Peter MacCallum Cancer Centre, 2014
Test: 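Genes whose loss kills vorinostat-resistant colon cancer cells under vorinostat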 (primary screen). System: human HCT116-VR colon cancer cells, selected for vorinostat resistance. Reagent: siRNA pool against human genes, 40 nM siRNA pool. Time to read-out: vorinostat for 24 h, read-out about 72 h after transfection. Conditions: vorinostat at 2.5 µM final. Measured: 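Cell viability by CellTiter-Fluor and caspase 3/7 activity by luminescence, each scaled to mock wells per plate, duplicates averaged, then robust z-scored over all plates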. Direction: viability robust z-score: higher = more viable cells than screen typical; caspase robust z-score: higher = more caspase 3/7 activity than screen typical. Rule for the call: 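Hits are knock-downs in viability class RV1/RV2 or caspase class CA1/CA2, excluding ones that killed cells in the no-drug cell-count arm; hits then retested with single siRNAs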.
Shown is a random part of about 18,000 reagents. Over the whole deposit, 450 (2.5%) got an active call. 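Single biological run; no consistent viability z cut-off exists, so the class columns, not z-scores, define the calls.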

The opening 2 records as a preview:
Target gene,viability hit class,caspase hit class,viability robust z-score,caspase robust z-score,outcome
TASP1 (taspase 1),no change,no change,0,0.04,inactive
TOR1A (torsin family 1 member A),no change,no change,-1.29,1.14,inactive

The list itself, from the start:
Target gene,viability hit class,caspase hit class,viability robust z-score,caspase robust z-score,outcome
TASP1 (taspase 1),no change,no change,0,0.04,inactive
TOR1A (torsin family 1 member A),no change,no change,-1.29,1.14,inactive
CDNF (cerebral dopamine neurotrophic factor),no change,no change,0.99,0.42,inactive
PLCB1 (phospholipase C beta 1),no change,no change,0.53,-0.5,inactive
TFDP3 (transcription factor Dp family member 3),no change,no change,0.28,1.66,inactive
KRTAP17-1 (keratin associated protein 17-1),no change,no change,-0.88,-0.25,inactive
MANF (mesencephalic astrocyte derived neurotrophic factor),no change,no change,0.73,0.26,inactive
DPYSL2 (dihydropyrimidinase like 2),no change,no change,-1.87,0.84,inactive
C2CD5 (C2 calcium dependent domain containing 5),no change,no change,1.06,-0.99,inactive
PDK1 (pyruvate dehydrogenase kinase 1),no change,no change,0.86,-0.4,inactive
TCHHL1 (trichohyalin like 1),no change,no change,-0.15,1.27,inactive
BECN1 (beclin 1),no change,no change,-0.43,1.5,inactive
RBM25 (RNA binding motif protein 25),no change,no change,-1.26,-1.23,inactive
SLC13A4,no change,no change,-0.46,3.62,inactive
STXBP5 (syntaxin binding protein 5),no change,no change,0.34,0.03,inactive
PRR25 (proline rich 25),no change,no change,-1.58,1.36,inactive
BARX2 (BARX homeobox 2),no change,no change,-0.7,1.46,inactive
ZP2 (zona pellucida glycoprotein 2),no change,no change,1.25,0.08,inactive
PEPD (peptidase D),no change,no change,0.02,-0.45,inactive
APOH (apolipoprotein H),no change,no change,0.04,-0.68,inactive
MAGED4B (MAGE family member D4B),no change,no change,0.81,1.7,inactive
"ALKBH7 (alkB homolog 7, RNA demethylase)",no change,no change,-1.21,0.96,inactive
CFHR4 (complement factor H related 4),no change,no change,0.32,0.38,inactive
